From publication PMC9233695, “Structural mechanism of protein recognition by the FW domain of autophagy receptor Nbr1” (Nature Communications, 2022)
Results are given in words; binding and its absence hold for the method and conditions named. Binding can be weak; no strength is given. Sequences can lack the tags named with a protein.

Target: T1, SpAtg8(1−115) fused to Pil1-mCherry (S. pombe) (UniProt O94272)
T1 sequence: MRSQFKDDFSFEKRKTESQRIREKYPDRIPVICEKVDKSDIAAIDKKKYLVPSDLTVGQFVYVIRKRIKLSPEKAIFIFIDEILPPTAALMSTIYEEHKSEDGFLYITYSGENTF
Test: Pil1 co-tethering assay; bait fused to Pil1-mCherry, prey fused to mECitrine, co-expressed in S. pombe; co-localisation on Pil1 filamentary structures by fluorescence microscopy; EMM medium, 30 °C

mECitrine-tagged CtNbr1 (Chaetomium thermophilum)
binding: binds
